{"source": "PubChem BioAssay AID1053208 (Peter MacCallum Cancer Centre, 2014)", "aim": "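Find knock-downs that sensitise mouse osteosarcoma cells to doxorubicin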 (primary screen)", "system": "mouse osteosarcoma cells, early-passage culture from an engineered mouse model of fibroblastic bone tumour", "reagents": "siRNA pool against mouse genes, 40 nM", "timing": "about 120 h (48 h before drug, then 72 h with drug)", "conditions": "doxorubicin 100 nM for 72 h, roughly 30-40% inhibitory dose", "detection": "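Viability read as ATP luminescence after 72 h of 100 nM doxorubicin or none, duplicate wells averaged, scaled to non-targeting siRNA, then expressed as robust z-scores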", "scale": "viability z-score with doxorubicin: higher = more viable cells under doxorubicin; viability z-score without drug: higher = more viable cells with knock-down alone", "rule for the call": "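a pool counts as active when its viability z-score with doxorubicin is -2 or below and its z-score without drug lies between -2 and 2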", "note": "Here is a random part of about 17,000 reagents tested. In the full data, 788 (4.7%) got an active call. 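Calls rest on z-score classes alone; an extra cut-off of viability at most 70% of control was not applied to them.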 Further read-outs or replicates are left out here."}
{"gene symbol": "Abca3 (ATP-binding cassette, sub-family A member 3)", "combined z-score class": "no change with or without drug", "viability z-score with doxorubicin": 0.79, "viability z-score without drug": 0.51, "call": "inactive"}
{"gene symbol": "Tpp1 (tripeptidyl peptidase I)", "combined z-score class": "no change with or without drug", "viability z-score with doxorubicin": 0.22, "viability z-score without drug": 0.84, "call": "inactive"}
{"gene symbol": "Lrit1", "combined z-score class": "low cell count without drug only", "viability z-score with doxorubicin": -1.57, "viability z-score without drug": -2.19, "call": "inactive"}
{"gene symbol": "Pdlim4 (PDZ and LIM domain 4)", "combined z-score class": "no change with or without drug", "viability z-score with doxorubicin": -1.8, "viability z-score without drug": -1.52, "call": "inactive"}
{"gene symbol": "Ankrd42 (ankyrin repeat domain 42)", "combined z-score class": "no change with or without drug", "viability z-score with doxorubicin": 0.22, "viability z-score without drug": 1.69, "call": "inactive"}
{"gene symbol": "Slc35b3", "combined z-score class": "low cell count with and without drug", "viability z-score with doxorubicin": -3.6, "viability z-score without drug": -2.36, "call": "inactive"}
{"gene symbol": "Adprhl1 (ADP-ribosylhydrolase like 1)", "combined z-score class": "high cell count with doxorubicin only", "viability z-score with doxorubicin": 2.14, "viability z-score without drug": 1.52, "call": "inactive"}
{"gene symbol": "A830054O04Rik (RIKEN cDNA A830054O04 gene)", "combined z-score class": "no change with or without drug", "viability z-score with doxorubicin": 0, "viability z-score without drug": 0.34, "call": "inactive"}
{"gene symbol": "Cpxm1 (carboxypeptidase X, M14 family member 1)", "combined z-score class": "no change with or without drug", "viability z-score with doxorubicin": 1.12, "viability z-score without drug": 0.84, "call": "inactive"}
{"gene symbol": "Acrv1 (acrosomal vesicle protein 1)", "combined z-score class": "no change with or without drug", "viability z-score with doxorubicin": -0.67, "viability z-score without drug": 0.17, "call": "inactive"}
{"gene symbol": "Cfap57 (cilia and flagella associated protein 57)", "combined z-score class": "high cell count without drug only", "viability z-score with doxorubicin": 0.9, "viability z-score without drug": 2.02, "call": "inactive"}
{"gene symbol": "Psip1 (PC4 and SFRS1 interacting protein 1)", "combined z-score class": "no change with or without drug", "viability z-score with doxorubicin": 1.57, "viability z-score without drug": 0.84, "call": "inactive"}

2 entries from above, sorted by “viability z-score without drug”, low to high.
{"gene symbol": "Acrv1 (acrosomal vesicle protein 1)", "combined z-score class": "no change with or without drug", "viability z-score with doxorubicin": -0.67, "viability z-score without drug": 0.17, "call": "inactive"}
{"gene symbol": "Cpxm1 (carboxypeptidase X, M14 family member 1)", "combined z-score class": "no change with or without drug", "viability z-score with doxorubicin": 1.12, "viability z-score without drug": 0.84, "call": "inactive"}
